Results on 2 molecules are retold here after PMC3816220.

By UniProt entry, the sequences of proteins in these tests, tags left out.
UniProt P31751: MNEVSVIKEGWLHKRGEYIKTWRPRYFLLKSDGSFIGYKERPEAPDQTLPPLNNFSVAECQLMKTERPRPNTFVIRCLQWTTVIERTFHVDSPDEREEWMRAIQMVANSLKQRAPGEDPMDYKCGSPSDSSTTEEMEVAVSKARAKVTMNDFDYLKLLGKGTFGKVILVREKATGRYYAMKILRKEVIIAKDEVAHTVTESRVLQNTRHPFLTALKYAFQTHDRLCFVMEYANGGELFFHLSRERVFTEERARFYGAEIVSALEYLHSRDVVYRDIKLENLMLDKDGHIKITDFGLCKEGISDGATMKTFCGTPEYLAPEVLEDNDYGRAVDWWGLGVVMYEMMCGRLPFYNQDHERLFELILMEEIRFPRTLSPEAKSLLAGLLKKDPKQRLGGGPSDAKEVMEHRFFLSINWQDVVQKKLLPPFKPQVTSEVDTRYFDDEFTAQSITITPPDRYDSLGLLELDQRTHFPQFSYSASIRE

No constants are given. Whether binding was seen depends on the method and setting. In cells and extracts the contact can be indirect. Some entries that bind do so weakly or less than the wild type. For some assays here: Sequences can lack the tags named with a protein.

The target in experiment [1] is T1, Flag-tagged TCL1b (human) (UniProt O95988).
T1 sequence: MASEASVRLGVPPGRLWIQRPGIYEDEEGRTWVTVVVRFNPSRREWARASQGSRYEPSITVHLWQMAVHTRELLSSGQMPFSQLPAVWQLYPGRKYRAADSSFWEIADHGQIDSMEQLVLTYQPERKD
Nature of the experiment: co-IP; 293T cells co-transfected with pUC-CAGGS-Flag-TCL1b and pCMV6-HA-Akt2, lysed 72 h later in Brij 97 lysis buffer; immunoprecipitated with anti-HA or anti-Flag, anti-mouse IgG as control; blotted with anti-HA-HRP or anti-Flag-HRP.

The target of experiment [2] is TCL1b (construct of the dimer co-immunoprecipitation not told) (human) (UniProt O95988). The experiment in a line: co-IP; told only in the discussion, no figure and no details (data not shown).

As to “HA-tagged Akt2 (from UniProt P31751 1-481) (enzyme)”, the binding entry in experiment [1] is “binds”.

B1: TCL1b (construct of the dimer co-immunoprecipitation not told) (protein, UniProt O95988 1-128)
chain: T1 sequence
For B1, the binding entry in experiment [2] was “binds”.
